Test results from paper PMC5996148.
The other results are listed elsewhere or left out. For some of these results: The source does not settle which construct or isoform was used.

Amino acid sequences for entries named in this document (tags omitted). A change or cut given only in a name is not applied to a line headed by its entry.
UniProt P11047: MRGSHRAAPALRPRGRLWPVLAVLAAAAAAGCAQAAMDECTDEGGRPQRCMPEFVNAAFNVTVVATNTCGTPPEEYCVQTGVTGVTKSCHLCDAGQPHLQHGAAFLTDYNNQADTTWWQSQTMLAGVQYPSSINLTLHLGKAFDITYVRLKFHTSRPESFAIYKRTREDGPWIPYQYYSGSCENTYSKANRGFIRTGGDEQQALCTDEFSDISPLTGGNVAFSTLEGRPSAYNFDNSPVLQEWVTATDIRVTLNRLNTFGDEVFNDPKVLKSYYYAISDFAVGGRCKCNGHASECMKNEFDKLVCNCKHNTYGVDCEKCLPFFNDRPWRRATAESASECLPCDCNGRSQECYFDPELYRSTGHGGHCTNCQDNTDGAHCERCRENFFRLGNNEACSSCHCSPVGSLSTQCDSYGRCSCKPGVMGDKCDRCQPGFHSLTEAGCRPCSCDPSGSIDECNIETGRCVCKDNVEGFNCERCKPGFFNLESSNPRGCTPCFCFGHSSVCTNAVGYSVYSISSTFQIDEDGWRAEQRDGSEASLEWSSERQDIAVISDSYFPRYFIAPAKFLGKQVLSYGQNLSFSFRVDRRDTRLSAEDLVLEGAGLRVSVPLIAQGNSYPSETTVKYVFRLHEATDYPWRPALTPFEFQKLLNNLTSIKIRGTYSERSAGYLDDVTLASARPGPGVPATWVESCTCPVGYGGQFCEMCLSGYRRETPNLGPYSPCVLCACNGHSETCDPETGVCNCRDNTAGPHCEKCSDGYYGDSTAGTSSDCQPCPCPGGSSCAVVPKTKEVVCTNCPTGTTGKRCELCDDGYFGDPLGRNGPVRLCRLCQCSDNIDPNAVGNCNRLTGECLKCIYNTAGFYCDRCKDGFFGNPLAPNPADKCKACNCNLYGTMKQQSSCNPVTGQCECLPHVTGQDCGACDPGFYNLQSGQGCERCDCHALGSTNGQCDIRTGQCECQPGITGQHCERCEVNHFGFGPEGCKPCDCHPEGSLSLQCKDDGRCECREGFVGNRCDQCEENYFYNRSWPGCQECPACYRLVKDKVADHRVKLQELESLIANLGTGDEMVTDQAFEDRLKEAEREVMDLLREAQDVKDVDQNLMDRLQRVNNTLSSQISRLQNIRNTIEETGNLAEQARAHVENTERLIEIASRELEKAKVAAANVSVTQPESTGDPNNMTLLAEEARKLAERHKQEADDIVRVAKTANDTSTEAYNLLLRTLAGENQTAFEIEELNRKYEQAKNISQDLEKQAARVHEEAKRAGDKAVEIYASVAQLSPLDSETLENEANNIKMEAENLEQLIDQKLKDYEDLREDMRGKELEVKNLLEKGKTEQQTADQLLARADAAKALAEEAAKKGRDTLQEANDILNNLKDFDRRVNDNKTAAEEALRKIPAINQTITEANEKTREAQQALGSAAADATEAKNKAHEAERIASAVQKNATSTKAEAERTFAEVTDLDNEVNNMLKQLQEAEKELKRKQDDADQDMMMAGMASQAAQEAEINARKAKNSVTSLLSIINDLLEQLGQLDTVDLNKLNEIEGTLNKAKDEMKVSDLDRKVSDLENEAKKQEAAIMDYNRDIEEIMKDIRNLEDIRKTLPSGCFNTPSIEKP

Tests used:
Assay in all cases: protein microarray (ProtoArray v5.0), streptavidin-Alexa Fluor 647
Conditions in all cases: 3'-biotin; 20 mM Tris (pH 7.5), 5 mM MgCl2, 100 mM KCl, 0.1% Tween-20, A/T-rich and random oligonucleotide blockers; temperature not stated; high values mean tight binding
[1] = test system: Keratinocyte growth factor (human)
[2] = test system: Kinesin light chain 3 (human)
[3] = test system: Kinesin-like protein KIF26B (human)
LACTB2 (human) = test system: LACTB2 (human)
LAMC1 = LAMC1 (UniProt P11047)
LARP1 = LARP1 (UniProt Q6PKG0)
LARP7 = biological target: T1, LARP7 (UniProt Q4G0J3)
T1 sequence: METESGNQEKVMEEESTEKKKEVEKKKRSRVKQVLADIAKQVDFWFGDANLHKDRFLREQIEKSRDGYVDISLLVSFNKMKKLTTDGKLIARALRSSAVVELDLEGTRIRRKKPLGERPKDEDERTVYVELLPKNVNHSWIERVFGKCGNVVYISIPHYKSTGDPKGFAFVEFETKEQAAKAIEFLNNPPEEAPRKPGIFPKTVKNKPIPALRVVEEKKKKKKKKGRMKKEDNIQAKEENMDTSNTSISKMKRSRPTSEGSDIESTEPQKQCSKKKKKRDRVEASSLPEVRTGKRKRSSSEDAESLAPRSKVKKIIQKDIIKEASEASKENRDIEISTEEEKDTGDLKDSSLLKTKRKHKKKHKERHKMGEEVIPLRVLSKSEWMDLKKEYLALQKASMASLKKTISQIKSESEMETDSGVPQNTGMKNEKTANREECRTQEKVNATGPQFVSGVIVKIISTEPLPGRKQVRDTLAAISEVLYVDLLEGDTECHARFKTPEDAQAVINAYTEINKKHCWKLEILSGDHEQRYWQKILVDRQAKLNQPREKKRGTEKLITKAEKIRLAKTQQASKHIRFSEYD

LAS1L (human) = test system: LAS1L (human)
LCN1 (human) = test system: LCN1 (human)
LCP1 (human) = test system: LCP1 (human)

Q: How did the binding signal [1] turn out when “GGGGACAGGGGTATGGGGAGGGG [G4-3 biotinylated (CtG)]” was run?
A: The binding signal was -0.331 z-score.

Q: And the binding signal [2]?
A: Its binding signal is -0.337 z-score.

Q: What about the binding signal [3] of the same sequence?
A: The binding signal was -0.31 z-score.

Q: And the binding signal (LACTB2 (human))?
A: Its binding signal is -0.336 z-score.

Q: And the binding signal (LAMC1)?
A: Its binding signal is 3.93 z-score.

Q: And the binding signal (LARP1)?
A: The binding signal was 4.71 z-score.

Q: And the binding signal (LARP7)?
A: The binding signal was 3.04 z-score.

Q: What about the binding signal (LAS1L (human)) of the same sequence?
A: Its binding signal is -0.322 z-score.

Q: What about the binding signal (LCN1 (human)) of the same sequence?
A: Its binding signal is -0.336 z-score.

Q: And the binding signal (LCP1 (human))?
A: The binding signal was -0.319 z-score.
